Screening data, single-dose tests

By UniProt entry, the sequences of proteins in these tests, tags left out. Residues count along the entry.
UniProt Q4DA54, 1-478: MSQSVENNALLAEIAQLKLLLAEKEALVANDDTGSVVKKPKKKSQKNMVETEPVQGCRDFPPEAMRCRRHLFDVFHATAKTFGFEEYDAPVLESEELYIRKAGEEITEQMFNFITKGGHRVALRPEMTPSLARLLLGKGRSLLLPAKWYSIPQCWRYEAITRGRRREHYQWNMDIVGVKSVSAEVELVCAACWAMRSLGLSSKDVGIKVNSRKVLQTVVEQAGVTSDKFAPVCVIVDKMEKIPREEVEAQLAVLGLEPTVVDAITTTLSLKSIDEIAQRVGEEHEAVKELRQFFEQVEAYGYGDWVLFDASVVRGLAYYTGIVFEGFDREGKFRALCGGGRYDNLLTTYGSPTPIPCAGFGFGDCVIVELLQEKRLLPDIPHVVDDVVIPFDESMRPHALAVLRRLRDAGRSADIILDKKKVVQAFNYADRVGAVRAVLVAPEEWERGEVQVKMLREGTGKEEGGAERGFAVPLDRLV
UniProt P9WFT3, whole entry: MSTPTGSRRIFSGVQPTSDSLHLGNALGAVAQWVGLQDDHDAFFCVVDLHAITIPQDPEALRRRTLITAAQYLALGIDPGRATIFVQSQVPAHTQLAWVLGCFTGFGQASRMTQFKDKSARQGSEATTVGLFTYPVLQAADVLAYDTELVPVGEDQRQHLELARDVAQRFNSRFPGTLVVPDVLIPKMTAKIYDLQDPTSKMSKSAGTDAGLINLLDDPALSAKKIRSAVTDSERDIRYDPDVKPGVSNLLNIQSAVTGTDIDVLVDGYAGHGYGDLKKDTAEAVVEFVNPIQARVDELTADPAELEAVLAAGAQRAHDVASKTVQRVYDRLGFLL
UniProt I6X8D2, whole entry: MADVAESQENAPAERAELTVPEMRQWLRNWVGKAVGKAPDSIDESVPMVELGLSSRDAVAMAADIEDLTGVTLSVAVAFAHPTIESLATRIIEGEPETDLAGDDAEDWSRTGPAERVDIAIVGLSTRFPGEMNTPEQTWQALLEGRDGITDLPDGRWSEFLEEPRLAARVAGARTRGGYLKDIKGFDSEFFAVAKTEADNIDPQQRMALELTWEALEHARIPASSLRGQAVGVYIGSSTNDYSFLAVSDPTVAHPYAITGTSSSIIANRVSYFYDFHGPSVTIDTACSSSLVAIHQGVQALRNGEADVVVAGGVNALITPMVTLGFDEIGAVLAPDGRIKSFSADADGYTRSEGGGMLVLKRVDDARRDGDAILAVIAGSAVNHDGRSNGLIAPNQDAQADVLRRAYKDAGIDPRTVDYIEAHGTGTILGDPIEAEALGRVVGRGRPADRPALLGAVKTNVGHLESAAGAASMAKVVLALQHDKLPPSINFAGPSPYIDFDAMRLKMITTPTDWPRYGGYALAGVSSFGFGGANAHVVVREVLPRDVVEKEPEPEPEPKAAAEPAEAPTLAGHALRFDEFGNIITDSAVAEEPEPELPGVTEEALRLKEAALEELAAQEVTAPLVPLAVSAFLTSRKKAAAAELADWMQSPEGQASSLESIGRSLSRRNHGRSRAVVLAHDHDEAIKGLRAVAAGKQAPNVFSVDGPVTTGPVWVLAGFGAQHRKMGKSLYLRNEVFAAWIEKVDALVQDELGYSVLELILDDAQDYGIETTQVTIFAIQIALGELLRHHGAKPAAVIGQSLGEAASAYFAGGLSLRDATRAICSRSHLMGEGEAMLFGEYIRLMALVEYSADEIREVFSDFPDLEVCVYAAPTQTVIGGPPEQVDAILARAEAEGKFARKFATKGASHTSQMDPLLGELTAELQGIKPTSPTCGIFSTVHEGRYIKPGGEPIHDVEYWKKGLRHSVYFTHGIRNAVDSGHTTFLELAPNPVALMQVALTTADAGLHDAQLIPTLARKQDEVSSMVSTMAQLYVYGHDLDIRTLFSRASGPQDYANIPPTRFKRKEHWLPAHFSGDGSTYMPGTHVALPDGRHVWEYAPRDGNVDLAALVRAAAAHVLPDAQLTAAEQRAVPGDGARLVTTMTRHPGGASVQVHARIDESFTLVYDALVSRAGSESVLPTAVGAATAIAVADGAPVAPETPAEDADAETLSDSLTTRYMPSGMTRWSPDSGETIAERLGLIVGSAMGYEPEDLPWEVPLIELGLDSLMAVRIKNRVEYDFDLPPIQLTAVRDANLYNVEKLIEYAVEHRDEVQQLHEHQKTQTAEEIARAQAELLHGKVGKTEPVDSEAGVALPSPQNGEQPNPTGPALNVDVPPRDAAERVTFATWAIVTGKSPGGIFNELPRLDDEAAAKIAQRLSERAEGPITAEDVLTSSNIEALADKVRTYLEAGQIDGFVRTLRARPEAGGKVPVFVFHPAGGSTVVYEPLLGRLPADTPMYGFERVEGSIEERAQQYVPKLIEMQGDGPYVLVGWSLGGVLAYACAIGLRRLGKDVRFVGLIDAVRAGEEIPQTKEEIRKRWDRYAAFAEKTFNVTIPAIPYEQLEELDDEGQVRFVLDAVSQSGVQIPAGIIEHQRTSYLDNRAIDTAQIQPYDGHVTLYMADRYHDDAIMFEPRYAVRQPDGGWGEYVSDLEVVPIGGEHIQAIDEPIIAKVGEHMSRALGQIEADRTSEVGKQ
UniProt Q8IDJ8, 1-583: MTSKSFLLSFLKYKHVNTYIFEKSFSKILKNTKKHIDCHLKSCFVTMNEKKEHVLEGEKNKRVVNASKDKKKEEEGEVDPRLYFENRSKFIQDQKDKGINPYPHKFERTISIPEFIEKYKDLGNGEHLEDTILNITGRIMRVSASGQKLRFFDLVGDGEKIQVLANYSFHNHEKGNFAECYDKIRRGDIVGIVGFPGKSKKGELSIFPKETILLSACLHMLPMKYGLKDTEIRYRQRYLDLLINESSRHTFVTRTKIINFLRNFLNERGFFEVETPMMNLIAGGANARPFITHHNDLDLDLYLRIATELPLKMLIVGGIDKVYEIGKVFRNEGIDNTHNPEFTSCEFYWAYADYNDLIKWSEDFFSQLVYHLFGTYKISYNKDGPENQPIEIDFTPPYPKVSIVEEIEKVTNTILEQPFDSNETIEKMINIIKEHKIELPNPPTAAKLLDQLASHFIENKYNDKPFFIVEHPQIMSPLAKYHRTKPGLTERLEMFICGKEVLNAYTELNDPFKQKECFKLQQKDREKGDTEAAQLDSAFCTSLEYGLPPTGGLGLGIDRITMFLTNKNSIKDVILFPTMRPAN

From ChEMBL document CHEMBL3988442, “University of Dundee, Small-Polar-MMV Screening Library” (2021).

TcHisRS: 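Enzyme assay of histidyl-tRNA synthetase; the read-out is not stated. Target: Histidine-tRNA ligase, Trypanosoma cruzi CL Brener (UniProt Q4DA54). Tested at 30 µM. Higher reads as stronger inhibition (inferred: compounds with an IC50 in retests scored well above the rest). Size under these conditions: about 69,000 compounds, about 31 of them at 50% or above in at least one test.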
MtTrpRS: 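Tryptophan-tRNA ligase, Mycobacterium tuberculosis (UniProt P9WFT3). Enzyme assay of tryptophanyl-tRNA synthetase; the read-out is not stated. Compounds at 10 µM. Direction is not recorded; retested compounds ran higher, which suggests that high means inhibition. Of about 65,000 compounds tested this way, about 64 (0.098%) reached 50% or more in at least one test.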
Pks13 thioesterase: 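Enzyme assay of the thioesterase domain of polyketide synthase 13; the read-out is not stated. Target: Polyketide synthase Pks13, Mycobacterium tuberculosis (UniProt I6X8D2). Concentration: 30 µM. The record gives no direction; the compounds picked for IC50 retests had high values, so higher reads as stronger inhibition. Size under these conditions: about 67,000 compounds, about 300 of them at 50% or above in at least one test.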
PfKRS1: 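Enzyme assay of the cytosolic lysyl-tRNA synthetase in 384-well plates, read by luminescence. Target: Lysine-tRNA ligase, Plasmodium falciparum 3D7 (UniProt Q8IDJ8). Compounds at 30 µM. Higher reads as stronger inhibition, judged from the few compounds that gave an IC50. Size under these conditions: about 69,000 compounds, about 49 of them at 50% or above in at least one test.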
Toxoplasma: 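Assay of Toxoplasma gondii numbers, read through their beta-galactosidase reporter with a colour substrate. Concentration: 10 µM. Higher reads as fewer parasites (inferred from which compounds were picked for retests). Of about 67,000 compounds tested this way, about 260 (0.38%) reached 50% or more in at least one test.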

Results are given as percent effect. How 0% and 100% were set is not recorded. Most values in the screen are low, and negative values occur. Compounds were drawn at random from those tested, without regard to their results.

- Cc1nc(CN2CCN(CC3CCOC3)Cc3cccnc32)cs1 (centres undefined) | TcHisRS: 1.075%; MtTrpRS: -2.789%; Pks13 thioesterase: -32.59%; PfKRS1: 2.032%
- COc1ccc(NC(=O)C(c2ccc(OC)cc2)N2CCOCC2)cc1 (centres undefined) | TcHisRS: 0.5025%; MtTrpRS: -1.027%; Pks13 thioesterase: 18.71%; PfKRS1: 1.919%; Toxoplasma: 0.9315%
- CC(C)C(C)N(C(=O)c1cc2c([nH]c1=O)CCCC2=O)C1CC1 (centres undefined) | TcHisRS: -7.143%; MtTrpRS: 2.963%; Pks13 thioesterase: -13.71%; PfKRS1: -1.961%; Toxoplasma: -4.817%
- CC1CCc2n[nH]c(C(=O)NCCCc3ccccn3)c2C1 (centres undefined) | TcHisRS: 3.802%; MtTrpRS: -6.588%; Pks13 thioesterase: 5.679%; PfKRS1: 2.264%; Toxoplasma: 1.849%
- CSc1ccc(NS(=O)(=O)c2cnn(C)c2)cn1 | TcHisRS: 2.479%; MtTrpRS: 0.7401%; Pks13 thioesterase: -10.57%; PfKRS1: -0.3316%; Toxoplasma: 29.53%
- CN(C(=O)CN1CCCC1c1cnn(C)c1)C(C)(C)C#N (centres undefined) | TcHisRS: 1.031%; MtTrpRS: -2.114%; Pks13 thioesterase: 3.543%; PfKRS1: -3.741%; Toxoplasma: -10.19%
- COc1cccc([C@H]2CN(C(=O)c3nnc4n3CCCC4)C[C@@H]2N)c1 | TcHisRS: -0.9662%; MtTrpRS: -2.315%; Pks13 thioesterase: 11.62%; PfKRS1: 4.607%; Toxoplasma: -19.2%
- CSCC(=O)N1CCC(Oc2cccc(C)c2)CC1 | TcHisRS: 0.5405%; MtTrpRS: 3.717%; Pks13 thioesterase: -8.531%; PfKRS1: -1.888%; Toxoplasma: 19.05%
- CSCCC(NC(N)=O)C(=O)NCc1c(C)nn(-c2ccccc2)c1C (centres undefined) | TcHisRS: 1.571%; MtTrpRS: -1.72%; Pks13 thioesterase: -46.12%; PfKRS1: 3.064%; Toxoplasma: 19.87%
- O=C(O)C(F)(F)F.O=C(O)C(F)(F)F.O=C(O)C(F)(F)F.[H][C@@]12COC[C@]1(COCc1ccncc1)CN(Cc1ccncc1)C2 | Toxoplasma: -16.53%
- OCCN1CCN(Cc2coc(-c3ccc(Cl)cc3)n2)CC1 | TcHisRS: -1.527%; MtTrpRS: 0.7194%; Pks13 thioesterase: 44.2%; PfKRS1: 0.5681%; Toxoplasma: -1.588%
- Cc1cc2c(cc1C(=O)N1CCC3(CC(=O)NC3=O)C1)OCCO2 (centres undefined) | TcHisRS: 5.419%; MtTrpRS: -4.845%; Pks13 thioesterase: -19.02%; PfKRS1: 2.331%; Toxoplasma: 4.994%
- CSc1ncccc1C(=O)N(CCO)Cc1ccccc1 | TcHisRS: 3.409%; Pks13 thioesterase: -21.27%; PfKRS1: 0.8316%; Toxoplasma: 8.739%
- O=C(c1ccc(O)c(Cl)c1)N1CCC(c2n[nH]c(C3CC3)n2)CC1 | TcHisRS: 5.639%; MtTrpRS: -2.827%; Pks13 thioesterase: -12.64%; PfKRS1: -0.8226%; Toxoplasma: -0.3937%
- CN1CCC(Cc2cc(N(C)C)ncn2)C1 (centres undefined) | TcHisRS: 2.682%; MtTrpRS: -2.185%; Pks13 thioesterase: -7.64%; PfKRS1: 0.1612%; Toxoplasma: 9.044%
- Cc1cccc2c1nc1n2[C@@H](CNC(=O)c2cncnc2)COC1 | TcHisRS: 8.696%; MtTrpRS: -0.5311%; Pks13 thioesterase: -32%; PfKRS1: 7.238%; Toxoplasma: -4.514%
- [H][C@@]12CCN(Cc3cc(C)on3)C[C@@]1([H])O[C@@H](c1nc(C)cs1)C2 | Toxoplasma: 4.863%
- O=C(Cn1c(C(F)F)cc2cccnc21)NC1CCCC1 | TcHisRS: 8.365%; MtTrpRS: -5.961%; Pks13 thioesterase: 4.135%; PfKRS1: 2.659%; Toxoplasma: 6.353%
- Cc1ccc(CNCc2cccc3cccnc23)c(OC2CCOC2)c1 (centres undefined) | TcHisRS: 21.47%; MtTrpRS: 6.657%; Pks13 thioesterase: -20.24%; PfKRS1: 3.376%; Toxoplasma: 17.82%
- O=C(NCCc1csc(-c2ccncc2)n1)C1CC(=O)N(C2CC2)C1 (centres undefined) | TcHisRS: 4.036%; MtTrpRS: 3.68%; Pks13 thioesterase: -4.874%; PfKRS1: 5.529%; Toxoplasma: 20.51%
- OC(COCc1ccccc1F)CN1CCc2c(ncn2C2CC2)C1 (centres undefined) | TcHisRS: 3.396%; MtTrpRS: 0.5912%; Pks13 thioesterase: -17.84%; PfKRS1: 6.137%; Toxoplasma: -1.611%
- Cc1ncc(CN(C)Cn2nc(-c3ccccc3)oc2=O)s1 | TcHisRS: 7.563%; MtTrpRS: 3.269%; Pks13 thioesterase: 4.167%; PfKRS1: 7.896%; Toxoplasma: 7.683%
- C1CN(Cc2noc(C3CC3)n2)CCN(Cc2nnc(C3CC3)o2)C1 | TcHisRS: 8.475%; MtTrpRS: 15.91%; PfKRS1: -0.02012%; Toxoplasma: 2.265%
- CC(CNCc1ccc(F)cc1)Oc1ccccn1 (centres undefined) | TcHisRS: 4.094%; MtTrpRS: 0.2101%; Pks13 thioesterase: -25.86%; PfKRS1: 0.9698%
- COc1ccc(CN2CCn3cc(CN4CCCCC4)nc3C2)cc1.O=C(O)C(F)(F)F.O=C(O)C(F)(F)F | Toxoplasma: -1.774%
- COCc1ccc(C(=O)N2CCCN(Cc3cscn3)CC2)cc1 | TcHisRS: 1.994%; MtTrpRS: 0.05679%; Pks13 thioesterase: -20.67%; PfKRS1: -1.152%; Toxoplasma: 3.239%
- CNC(=O)c1cc2c(nc1NCC1CC1)CCN(S(C)(=O)=O)CC2 | TcHisRS: -1.22%; MtTrpRS: 2.213%; Pks13 thioesterase: 55.89%; PfKRS1: 4.88%
- CCS(=O)(=O)N1CC(=O)N(Cc2ccccc2OC)CC(O)C1 (centres undefined) | TcHisRS: 7.865%; Pks13 thioesterase: 1.143%; PfKRS1: 0.2301%; Toxoplasma: -1.375%
- c1ccc(O[C@H]2C[C@@H]3CN(Cc4cnccn4)C[C@@H]3C2)cc1 | TcHisRS: 8.365%; MtTrpRS: -6.118%; Pks13 thioesterase: -2.607%; PfKRS1: -0.2735%

Once more, the final 2:

- CCS(=O)(=O)N1CC(=O)N(Cc2ccccc2OC)CC(O)C1 (centres undefined) | TcHisRS: 7.865%; Pks13 thioesterase: 1.143%; PfKRS1: 0.2301%; Toxoplasma: -1.375%
- c1ccc(O[C@H]2C[C@@H]3CN(Cc4cnccn4)C[C@@H]3C2)cc1 | TcHisRS: 8.365%; MtTrpRS: -6.118%; Pks13 thioesterase: -2.607%; PfKRS1: -0.2735%